Test results as given in patent US7395112B2, “Method and apparatus for treating tumors using low strength electric fields” (priority 2002, dated 2008).

System: CD3+, CD4+, CD8+ and CD19+ splenocytes
Assay: FACS analysis of splenic lymphocyte populations in treated DA3 tumor bearing mice
Type: in vivo, BALB/c mice
Conditions: LEF with the drug; 10-12 days following treatment

| Compound | splenic lymphocyte profiles of CD3+, CD4+, CD8+ and CD19 cells compared with untreated tumor bearing mice |
| --- | --- |
| CC(=O)O[C@H]1C(=O)[C@@]2(C)[C@H]([C@H](OC(=O)c3ccccc3)[C@]3(O)C[C@H](OC(=O)[C@H](O)[C@@H](NC(=O)c4ccccc4)c4ccccc4)C(C)=C1C3(C)C)[C@]1(OC(C)=O)CO[C@@H]1C[C@@H]2O [taxol, paclitaxel] | normal, or more normal-like |
| bleomycin | normal, or more normal-like |
